Experimental findings from publication PMC10216487 are described below.

Sequences of proteins named here, by UniProt entry; tags and fusion partners are left off.
UniProt P51531: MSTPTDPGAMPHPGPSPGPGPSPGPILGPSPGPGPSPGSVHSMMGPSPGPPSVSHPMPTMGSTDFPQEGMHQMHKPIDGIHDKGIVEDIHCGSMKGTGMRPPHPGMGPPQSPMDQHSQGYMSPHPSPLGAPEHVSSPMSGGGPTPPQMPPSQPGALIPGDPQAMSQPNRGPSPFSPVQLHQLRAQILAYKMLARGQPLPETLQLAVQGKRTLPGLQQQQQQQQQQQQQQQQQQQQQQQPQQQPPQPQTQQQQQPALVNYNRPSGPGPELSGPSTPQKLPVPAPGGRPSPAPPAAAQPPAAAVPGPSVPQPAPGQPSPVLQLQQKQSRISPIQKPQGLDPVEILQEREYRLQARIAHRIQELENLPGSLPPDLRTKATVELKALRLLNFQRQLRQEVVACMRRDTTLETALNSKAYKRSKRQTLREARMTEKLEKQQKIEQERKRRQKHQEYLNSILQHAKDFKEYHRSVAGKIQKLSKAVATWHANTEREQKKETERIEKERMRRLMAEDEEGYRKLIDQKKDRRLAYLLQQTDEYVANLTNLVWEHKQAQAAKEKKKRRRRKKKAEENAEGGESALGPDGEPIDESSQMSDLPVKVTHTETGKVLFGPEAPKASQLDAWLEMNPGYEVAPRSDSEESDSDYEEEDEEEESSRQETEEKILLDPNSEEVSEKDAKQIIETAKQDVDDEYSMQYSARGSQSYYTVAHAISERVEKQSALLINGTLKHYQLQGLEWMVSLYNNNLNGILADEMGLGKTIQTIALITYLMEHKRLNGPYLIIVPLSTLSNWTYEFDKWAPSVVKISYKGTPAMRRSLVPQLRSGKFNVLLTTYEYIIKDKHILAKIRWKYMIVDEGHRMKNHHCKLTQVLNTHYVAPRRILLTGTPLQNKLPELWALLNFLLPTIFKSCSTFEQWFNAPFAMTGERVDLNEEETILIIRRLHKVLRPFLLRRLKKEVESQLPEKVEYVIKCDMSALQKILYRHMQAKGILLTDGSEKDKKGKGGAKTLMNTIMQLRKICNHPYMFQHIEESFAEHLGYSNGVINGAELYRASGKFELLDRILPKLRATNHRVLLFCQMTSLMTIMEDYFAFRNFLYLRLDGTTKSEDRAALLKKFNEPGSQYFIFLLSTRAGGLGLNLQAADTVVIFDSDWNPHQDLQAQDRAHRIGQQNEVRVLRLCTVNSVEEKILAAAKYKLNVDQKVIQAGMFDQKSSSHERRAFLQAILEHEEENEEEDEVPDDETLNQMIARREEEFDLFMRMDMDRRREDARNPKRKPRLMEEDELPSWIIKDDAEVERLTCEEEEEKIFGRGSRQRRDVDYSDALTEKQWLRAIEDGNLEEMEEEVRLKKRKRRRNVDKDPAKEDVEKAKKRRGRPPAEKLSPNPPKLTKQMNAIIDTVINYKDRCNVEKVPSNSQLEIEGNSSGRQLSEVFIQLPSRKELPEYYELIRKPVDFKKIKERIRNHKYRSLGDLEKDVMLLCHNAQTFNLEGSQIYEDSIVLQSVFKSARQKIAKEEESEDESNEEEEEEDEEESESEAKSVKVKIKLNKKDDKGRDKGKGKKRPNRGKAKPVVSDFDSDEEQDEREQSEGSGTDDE
UniProt Q92922: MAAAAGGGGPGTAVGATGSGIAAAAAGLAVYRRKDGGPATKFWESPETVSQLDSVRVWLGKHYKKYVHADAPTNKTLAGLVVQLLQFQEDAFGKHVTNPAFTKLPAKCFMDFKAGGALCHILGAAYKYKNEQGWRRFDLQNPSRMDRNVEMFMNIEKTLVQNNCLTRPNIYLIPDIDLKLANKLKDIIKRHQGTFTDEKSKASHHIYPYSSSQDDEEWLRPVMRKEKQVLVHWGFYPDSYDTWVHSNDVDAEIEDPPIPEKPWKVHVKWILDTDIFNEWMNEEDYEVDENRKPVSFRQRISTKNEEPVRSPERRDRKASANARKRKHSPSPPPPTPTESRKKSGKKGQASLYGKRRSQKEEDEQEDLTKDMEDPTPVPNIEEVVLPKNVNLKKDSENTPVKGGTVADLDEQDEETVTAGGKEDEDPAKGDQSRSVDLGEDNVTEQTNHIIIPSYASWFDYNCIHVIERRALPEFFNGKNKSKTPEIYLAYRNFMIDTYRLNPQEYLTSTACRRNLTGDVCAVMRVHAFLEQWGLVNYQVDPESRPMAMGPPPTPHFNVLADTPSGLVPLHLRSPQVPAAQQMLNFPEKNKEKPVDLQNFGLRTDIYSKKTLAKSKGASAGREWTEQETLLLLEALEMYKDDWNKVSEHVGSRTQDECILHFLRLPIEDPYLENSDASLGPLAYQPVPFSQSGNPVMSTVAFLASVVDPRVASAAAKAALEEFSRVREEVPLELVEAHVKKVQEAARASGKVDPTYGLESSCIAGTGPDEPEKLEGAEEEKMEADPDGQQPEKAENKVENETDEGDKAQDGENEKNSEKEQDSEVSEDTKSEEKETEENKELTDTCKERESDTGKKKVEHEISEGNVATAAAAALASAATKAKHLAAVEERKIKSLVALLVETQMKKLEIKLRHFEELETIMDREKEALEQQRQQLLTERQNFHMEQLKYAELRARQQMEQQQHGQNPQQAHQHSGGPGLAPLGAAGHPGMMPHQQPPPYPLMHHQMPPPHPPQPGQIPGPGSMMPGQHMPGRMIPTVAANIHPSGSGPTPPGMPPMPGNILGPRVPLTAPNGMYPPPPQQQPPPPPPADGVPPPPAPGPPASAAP
UniProt Q96RK0: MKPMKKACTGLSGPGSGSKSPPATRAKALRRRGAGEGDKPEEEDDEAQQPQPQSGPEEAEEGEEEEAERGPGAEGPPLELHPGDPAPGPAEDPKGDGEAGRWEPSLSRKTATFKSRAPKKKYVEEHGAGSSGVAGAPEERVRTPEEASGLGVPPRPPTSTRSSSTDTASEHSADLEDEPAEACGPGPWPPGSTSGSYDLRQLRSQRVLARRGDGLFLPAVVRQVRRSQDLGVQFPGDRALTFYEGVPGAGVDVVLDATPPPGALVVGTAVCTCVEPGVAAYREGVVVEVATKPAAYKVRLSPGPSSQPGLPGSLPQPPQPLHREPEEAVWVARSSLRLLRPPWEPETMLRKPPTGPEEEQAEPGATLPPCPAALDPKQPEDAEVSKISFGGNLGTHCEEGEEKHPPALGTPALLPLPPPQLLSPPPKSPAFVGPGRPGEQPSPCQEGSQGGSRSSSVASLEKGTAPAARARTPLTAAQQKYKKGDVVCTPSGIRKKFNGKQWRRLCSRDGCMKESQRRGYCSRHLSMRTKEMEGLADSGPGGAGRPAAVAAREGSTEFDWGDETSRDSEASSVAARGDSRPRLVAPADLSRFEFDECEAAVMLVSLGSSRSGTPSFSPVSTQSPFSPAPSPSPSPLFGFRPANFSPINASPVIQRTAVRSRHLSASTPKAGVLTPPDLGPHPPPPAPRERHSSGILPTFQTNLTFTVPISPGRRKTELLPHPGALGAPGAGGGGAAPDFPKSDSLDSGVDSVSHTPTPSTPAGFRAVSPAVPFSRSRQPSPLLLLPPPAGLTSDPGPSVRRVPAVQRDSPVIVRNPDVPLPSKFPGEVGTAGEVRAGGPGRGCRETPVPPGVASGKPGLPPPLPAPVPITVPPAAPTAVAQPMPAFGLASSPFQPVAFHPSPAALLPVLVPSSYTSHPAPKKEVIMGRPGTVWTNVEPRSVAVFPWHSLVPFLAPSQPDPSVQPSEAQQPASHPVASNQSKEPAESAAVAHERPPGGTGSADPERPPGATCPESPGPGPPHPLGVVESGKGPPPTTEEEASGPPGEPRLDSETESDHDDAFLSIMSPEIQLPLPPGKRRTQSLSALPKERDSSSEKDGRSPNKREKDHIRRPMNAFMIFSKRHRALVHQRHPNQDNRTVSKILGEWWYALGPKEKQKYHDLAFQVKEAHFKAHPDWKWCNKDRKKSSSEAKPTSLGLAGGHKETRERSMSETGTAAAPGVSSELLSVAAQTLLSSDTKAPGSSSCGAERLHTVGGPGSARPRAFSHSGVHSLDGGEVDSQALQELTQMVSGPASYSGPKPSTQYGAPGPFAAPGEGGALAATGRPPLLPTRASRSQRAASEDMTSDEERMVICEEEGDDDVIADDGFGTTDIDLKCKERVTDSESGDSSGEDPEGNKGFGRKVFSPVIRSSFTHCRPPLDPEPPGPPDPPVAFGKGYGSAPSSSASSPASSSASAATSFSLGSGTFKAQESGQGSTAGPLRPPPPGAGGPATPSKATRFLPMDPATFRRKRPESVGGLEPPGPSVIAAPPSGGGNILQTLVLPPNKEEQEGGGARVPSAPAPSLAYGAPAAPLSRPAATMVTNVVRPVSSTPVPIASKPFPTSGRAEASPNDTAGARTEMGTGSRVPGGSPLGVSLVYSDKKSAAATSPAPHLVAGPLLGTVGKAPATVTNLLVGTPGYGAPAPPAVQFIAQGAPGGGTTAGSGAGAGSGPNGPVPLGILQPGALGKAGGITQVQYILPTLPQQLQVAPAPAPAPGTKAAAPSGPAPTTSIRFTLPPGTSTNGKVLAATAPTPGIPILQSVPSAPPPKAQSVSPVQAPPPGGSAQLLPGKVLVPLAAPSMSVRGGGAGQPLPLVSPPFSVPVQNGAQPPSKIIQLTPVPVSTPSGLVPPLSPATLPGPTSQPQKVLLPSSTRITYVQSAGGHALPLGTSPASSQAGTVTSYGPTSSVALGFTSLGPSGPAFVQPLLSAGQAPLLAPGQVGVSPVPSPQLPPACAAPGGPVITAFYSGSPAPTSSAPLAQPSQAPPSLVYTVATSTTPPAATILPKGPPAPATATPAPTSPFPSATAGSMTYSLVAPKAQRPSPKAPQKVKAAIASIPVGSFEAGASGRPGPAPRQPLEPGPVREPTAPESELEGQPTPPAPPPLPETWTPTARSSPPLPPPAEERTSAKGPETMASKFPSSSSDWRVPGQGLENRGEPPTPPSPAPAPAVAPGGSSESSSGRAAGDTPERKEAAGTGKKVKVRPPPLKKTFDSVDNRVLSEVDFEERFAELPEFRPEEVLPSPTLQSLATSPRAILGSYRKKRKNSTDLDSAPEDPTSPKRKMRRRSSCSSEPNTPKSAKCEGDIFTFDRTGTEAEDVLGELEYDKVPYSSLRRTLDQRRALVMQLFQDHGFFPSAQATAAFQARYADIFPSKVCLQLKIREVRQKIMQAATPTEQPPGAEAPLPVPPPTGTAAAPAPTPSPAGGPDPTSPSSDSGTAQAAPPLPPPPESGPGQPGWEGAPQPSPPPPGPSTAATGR

These are yes or no findings as the source states them, for the method shown. In cells and extracts the contact can be indirect. Some entries that bind do so weakly or less than the wild type.

Assay [1] concerns the target SMARCA2 (human (endogenous in HEK293A and NHA)) (UniProt P51531). Briefly: co-IP; reciprocal IP: SWI/SNF subunit immunoprecipitated from nuclear lysates of the parental NHA-CIC^WT line, CIC detected by western blot. (Immunoblotting shows a protein as a band on a membrane.)
Assay [2] has as its target SMARCC1 (human (endogenous in HEK293A and NHA)) (UniProt Q92922). The description is as above.

Regarding “Capicua (CIC), endogenous (from UniProt Q96RK0 1-2517)”, the binding result in assay [1] and in assay [2] was “binds” in each case.
